Data: US20260275395A1, “ENZYMATIC CONVERSION OF D-XYLOSE INTO D-RIBOSE AND D-RIBULOSE-5-PHOSPHATE” (priority 2022, published 2026)

System: BpRpiB (D-ribose-5-phosphate isomerase)
Experiment: Optimal reaction temperature and pH of BpRpiB
Type: biochemical, Bacteroides plebeius

B1: BpRpiB: D-ribose-5-phosphate isomerase derived from Bacteroides plebeius, SEQ ID NO: 5 (protein)
chain: MKTIGLASDHAGFELKQYVKKWLEAKGWEYKDFGTYTTDSCDYPDFAHPLALAVENGECYPGIAICGSGEGIGITLNKHQGIRAALCWIPEIAHLARQHNNANVLVMPGRFIDEAMADKIMTEFFTTDFEGGRHQARIDKIPVR
modifications: BpRpiB
Sodium phosphate buffer
  pH of highest activity: 7.0
Standard reaction conditions, various temperatures
  Temperature of highest activity: 50 °C
